Experimental data published in publication PMC3885427.
These are yes or no findings as the source states them, for the method shown. For some assays here: Binding seen in cells or lysates may run through a third protein. Some binding calls cover weakened binding; strength is not graded here. Values belong to the substance of their own block, whether it stands above or below them.

Amino acid sequences for entries named in this document (tags omitted). A change or cut given only in a name is not applied to a line headed by its entry. Residues count along the entry.
UniProt O60902: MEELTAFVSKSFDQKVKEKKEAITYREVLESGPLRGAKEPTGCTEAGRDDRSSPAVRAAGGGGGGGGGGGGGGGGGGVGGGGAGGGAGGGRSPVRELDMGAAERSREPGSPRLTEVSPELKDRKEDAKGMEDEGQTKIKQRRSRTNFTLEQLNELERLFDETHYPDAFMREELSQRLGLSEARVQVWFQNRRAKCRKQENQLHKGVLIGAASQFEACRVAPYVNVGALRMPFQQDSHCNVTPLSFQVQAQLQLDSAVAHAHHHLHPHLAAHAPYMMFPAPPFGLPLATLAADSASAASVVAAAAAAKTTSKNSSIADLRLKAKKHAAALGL
SHOX2(139–331), yeast two-hybrid fusion: residues 139-331 of O60902
UniProt O15266: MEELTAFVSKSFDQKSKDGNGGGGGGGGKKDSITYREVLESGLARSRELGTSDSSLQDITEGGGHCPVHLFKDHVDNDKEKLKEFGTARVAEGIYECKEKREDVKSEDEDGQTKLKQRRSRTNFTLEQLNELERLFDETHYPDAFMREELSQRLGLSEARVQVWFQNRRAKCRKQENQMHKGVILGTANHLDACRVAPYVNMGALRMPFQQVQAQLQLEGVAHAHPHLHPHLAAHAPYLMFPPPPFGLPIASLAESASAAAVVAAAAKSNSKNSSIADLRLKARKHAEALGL
UniProt P35711: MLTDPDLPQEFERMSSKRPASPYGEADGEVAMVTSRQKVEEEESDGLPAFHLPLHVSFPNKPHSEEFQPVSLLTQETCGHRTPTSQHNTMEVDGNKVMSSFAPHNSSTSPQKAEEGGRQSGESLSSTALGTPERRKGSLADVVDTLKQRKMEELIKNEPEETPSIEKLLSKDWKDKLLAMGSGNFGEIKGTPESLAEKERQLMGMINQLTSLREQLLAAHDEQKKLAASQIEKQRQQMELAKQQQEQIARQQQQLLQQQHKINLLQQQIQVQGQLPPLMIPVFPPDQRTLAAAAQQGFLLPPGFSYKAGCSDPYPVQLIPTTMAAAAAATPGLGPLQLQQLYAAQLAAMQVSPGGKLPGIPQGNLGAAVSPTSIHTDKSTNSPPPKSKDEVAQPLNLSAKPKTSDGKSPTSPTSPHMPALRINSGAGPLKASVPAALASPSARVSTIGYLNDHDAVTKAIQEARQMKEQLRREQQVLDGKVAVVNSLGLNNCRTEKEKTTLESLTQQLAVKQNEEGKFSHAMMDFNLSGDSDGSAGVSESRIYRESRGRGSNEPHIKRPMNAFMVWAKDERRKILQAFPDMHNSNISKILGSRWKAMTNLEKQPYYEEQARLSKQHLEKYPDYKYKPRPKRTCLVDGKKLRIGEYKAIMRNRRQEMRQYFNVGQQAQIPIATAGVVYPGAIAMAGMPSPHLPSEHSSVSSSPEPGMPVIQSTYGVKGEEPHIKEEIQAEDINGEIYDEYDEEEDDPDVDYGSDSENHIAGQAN

Tests used:
FLAG:SHOX2 (human) = FLAG:SHOX2 (human) (UniProt O60902); test: co-IP; nuclear extracts of HEK293 cells overexpressing FLAG:SHOX2 and HA:SOX5, HA:SOX6 or HA:SHOX, immunoprecipitated with anti-FLAG-agarose; blots probed with SHOX2, SOX5, SOX6 and SHOX antibodies; cells with the HA protein only as negative controls
[1] = target: SHOX2a (called SHOX2 in the paper), full-length, yeast two-hybrid fusion (human) (UniProt O60902); test: two-hybrid; S. cerevisiae Y187 cotransformed with pGBT9 (GAL4 binding domain) and pACT2 (GAL4 activation domain) fusions; β-galactosidase liquid assay with CRPG as substrate; fragments and mutants given as percent of full-length or wild-type protein; empty vectors as negative controls
[2] = target: SHOX (SHOXa), full-length, yeast two-hybrid fusion (human) (UniProt O15266); test: as above
[3] = target: SOX5, yeast two-hybrid fusion (UniProt P35711); test: as above
[4] = target: SHOX p.D278A, yeast two-hybrid fusion (human) (UniProt O15266); test: as above
[5] = target: SHOX p.L132V, yeast two-hybrid fusion (human) (UniProt O15266); test: as above
[6] = target: SHOX p.A170P, yeast two-hybrid fusion (human) (UniProt O15266); test: as above

binding (FLAG:SHOX2 (human)): binds
Substance: HA:SHOX (from UniProt O15266 1-292)

binding (FLAG:SHOX2 (human)): binds
Substance: HA:SOX5 (from UniProt P35711 1-763)

binding [1]: binds
Substance: SHOX2 p.A193P, yeast two-hybrid fusion (from UniProt O60902-1 1-331)

binding [1]: binds
Substance: SHOX2 p.L155V, yeast two-hybrid fusion (from UniProt O60902-1 1-331)

binding [1]: binds
Substance: SHOX2 p.R196C, yeast two-hybrid fusion (from UniProt O60902-1 1-331)

binding [1]: binds
Substance: SHOX2 p.R319P, yeast two-hybrid fusion (from UniProt O60902-1 1-331)

binding [1]: binds | binding [2]: binds
Substance: SHOX2(139–331), yeast two-hybrid fusion (from UniProt O60902-1 139-331) (domain or fragment)

binding [3]: binds weakly | binding [1]: binds | binding [2]: binds | binding [4]: binds | binding [5]: binds | binding [6]: binds
Substance: SHOX2a (called SHOX2 in the paper), full-length, yeast two-hybrid fusion (from UniProt O60902-1 1-331)
